Experimental data: paper PMC11846946
These are yes or no findings as the source states them, for the method shown. In cells and extracts the contact can be indirect.

Amino acid sequences for entries named in this document (tags omitted). Residues count along the entry.
UniProt P28986, residues 25-511: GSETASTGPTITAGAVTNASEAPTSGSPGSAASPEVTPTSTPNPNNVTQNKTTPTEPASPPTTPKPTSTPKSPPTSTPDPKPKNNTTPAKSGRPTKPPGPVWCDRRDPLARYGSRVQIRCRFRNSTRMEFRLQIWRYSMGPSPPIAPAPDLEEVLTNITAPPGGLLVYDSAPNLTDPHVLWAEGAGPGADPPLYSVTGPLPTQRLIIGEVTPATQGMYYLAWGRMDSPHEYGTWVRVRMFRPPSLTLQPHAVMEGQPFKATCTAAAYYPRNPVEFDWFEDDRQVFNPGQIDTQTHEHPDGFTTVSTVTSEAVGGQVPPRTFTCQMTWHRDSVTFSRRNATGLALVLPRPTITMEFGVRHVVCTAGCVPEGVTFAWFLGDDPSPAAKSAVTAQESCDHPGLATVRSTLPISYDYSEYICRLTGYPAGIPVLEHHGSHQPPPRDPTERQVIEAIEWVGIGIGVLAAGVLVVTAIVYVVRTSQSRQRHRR

Target: Apolipoprotein E isoform 3 (human (endogenous in Huh-7)) (UniProt P02649)
Experiment: co-IP; Huh-7 cells (expressing ApoE 3) mock treated or infected with HSV1 at MOI 10; lysis in 0.05 M Tris-HCl pH 8, 0.15 M NaCl, 1% Triton X-100; precipitation with anti-ApoE or anti-HSV1-gE antibodies on protein A agarose, 4 °C overnight; blots for ApoE, gB, gC, gD, gE

Substance | binding
HSV1 glycoprotein C (from UniProt P28986 25-511) | no binding
HSV1 glycoprotein B (from UniProt P06437 31-904) | no binding
